## Screening data

Data taken from PubChem BioAssay AID1224904, deposited by Broad Institute (2016).

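Control-channel Italica luciferase signal in doxycycline-induced 293T-iDUX4 cells, given as percent activity after a 24-hour treatment.
The test concentration is not given here.
Percent change in the Italica control signal; more negative values mean stronger inhibition, which points to nonspecific, tet-on or cytotoxic effects.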

Values are in %.
Common to all entries: measured here: Italica tet-on control reporter.
Part of the compounds only, not a random draw; the main read-out is not listed here.

compound: CN1c2ccc(-c3ccccc3F)cc2[C@H]2[C@H](CCN2C(=O)Nc2ccc(F)cc2)[C@H]1CO
activity change (%): -57.16

compound: Cc1cccc(-c2ccc([C@H]3[C@H](CO)N4CCCCN(S(=O)(=O)c5cccs5)C[C@@H]34)cc2)c1
activity change (%): -6.978

compound: N#Cc1cccc(-c2ccc3c(c2)[C@H]2[C@H](CCN2C(=O)C2CCCCC2)[C@H](CO)N3)c1
activity change (%): -63.09

compound: C[C@H](CO)N1C[C@H](C)[C@H](CN(C)C(=O)Nc2cccc(F)c2)OCc2ccccc2-c2c(n(C)c3ccccc23)C1=O
activity change (%): -84.4

compound: CN(C)Cc1cn(CC[C@@H]2CC[C@H](NS(=O)(=O)c3ccc(-c4ccccc4)cc3)[C@H](CO)O2)nn1
activity change (%): -17.56

compound: COc1cccc(C#Cc2ccc([C@H]3[C@@H](CO)N4C(=O)CN(C(=O)Cc5ccccc5)C[C@@H]34)cc2)c1
activity change (%): -12.36

compound: N#C[C@@H]1[C@@H](c2ccccc2C2=CCCCC2)[C@H](CO)N1S(=O)(=O)c1ccccc1
activity change (%): -32.63

compound: CN(C)C(=O)c1cccc(-c2ccc3c(c2)[C@H]2[C@H](CCN2C(=O)C2CCC2)[C@@H](CO)N3)c1
activity change (%): -49.33

compound: CC(C)CC#Cc1ccc([C@@H]2[C@@H](CO)N3C(=O)CN(S(=O)(=O)c4cccc(F)c4)C[C@@H]23)cc1
activity change (%): -12.78

compound: O=C(c1ccc(F)cc1)N1CC(=O)N2[C@H](C1)[C@H](c1ccc(C#CCC3CCCC3)cc1)[C@@H]2CO
activity change (%): -11.71

compound: CCN1[C@@H]2Cn3c(ccc(C4=CCCC4)c3=O)[C@H]1[C@@H](C(=O)N1CCc3ccccc3C1)[C@@H]2CO
activity change (%): 1.091

compound: COc1cccc(CN2[C@H](CO)[C@@H](c3ccccc3)C23CN(Cc2ccccc2)C3)c1
activity change (%): -16.16

compound: C[C@H]1CN([C@@H](C)CO)C(=O)c2c(c3ccccc3n2C)-c2ccccc2CO[C@H]1CN(C)Cc1ccc(Oc2ccccc2)cc1
activity change (%): -10.45

compound: N#Cc1ccc(-c2ccc3c(c2)[C@H]2[C@H](CCN2C(=O)c2ccc(F)cc2)[C@@H](CO)N3)cc1
activity change (%): -4.587

compound: COc1ccccc1NC(=O)N1CC[C@@H]2[C@H]1c1cc(-c3ccc(F)cc3)ccc1N(C)[C@H]2CO
activity change (%): -34.18

compound: O=C(C[C@H]1CC[C@H]2[C@@H](COC[C@@H](O)CN2S(=O)(=O)c2ccc(F)cc2)O1)NCc1ccc(Cl)c(Cl)c1
activity change (%): -18.34

compound: Cc1ccc(S(=O)(=O)N2C[C@H](O)COC[C@H]3O[C@@H](CC(=O)NCc4ccc(Cl)c(Cl)c4)CC[C@@H]32)cc1
activity change (%): -18.97

compound: C[C@H](O)C#Cc1ccc([C@H]2[C@@H](CO)N3CCCCN(C(=O)c4ccc5c(c4)OCO5)C[C@H]23)cc1
activity change (%): -4.853

compound: CCC(=O)N1CC2(C1)[C@@H](c1ccc(-c3cccc(F)c3)cc1)[C@@H](CO)N2CC1CC1
activity change (%): -21.32

compound: CC(C)CC#Cc1ccc([C@H]2[C@H](CO)N3CCCCN(C(=O)Nc4ccccc4)C[C@@H]23)cc1
activity change (%): -19.23

The first 2 entries again:

With CN1c2ccc(-c3ccccc3F)cc2[C@H]2[C@H](CCN2C(=O)Nc2ccc(F)cc2)[C@H]1CO the assay gave activity change -57.16%.
With Cc1cccc(-c2ccc([C@H]3[C@H](CO)N4CCCCN(S(=O)(=O)c5cccs5)C[C@@H]34)cc2)c1 the assay gave activity change -6.978%.